PubChem BioAssay AID1259254 – NCATS, 2017

- Aim: 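Gene knock-downs that lead to re-replication, shown by excess G2 DNA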 (primary screen)
- Cell system: human HCT116 colorectal cancer cells
- Reagent: single siRNA against human genes
- Duration: 3 days
- Read-out: 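Imaged Hoechst DNA stain sorts each cell into a cycle phase by DNA amount; per plate, G2 fraction set to 0% for non-targeting and 100% for GMNN siRNA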
- Direction: G2 robust z-score and G2 cells, % of GMNN control: higher = more G2 cells, more excess DNA replication
- Active means: 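An siRNA counts as active if its G2 robust z-score lies at least 5 MADs above the screen median; here such calls match roughly 38% of GMNN control or more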
The deposit covers about 59,000 reagents; shown is a random part of them. About 1,550 of all reagents (2.6%) were called active. 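G2 share is only a proxy for re-replication; each gene was hit by three separate siRNAs, and active genes were retested.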 Reagents against one gene are numbered here. Not all columns of the deposit are shown. Not given: the amount of reagent.

gene | reagent no. | G2 robust z-score | G2 cells, % of GMNN control | Outcome
CBLB (GeneID 868) | 1 | -1.13 | -4.99 | inactive
CBLB (GeneID 868) | 2 | 0.701 | 7.9 | inactive
CBLB (GeneID 868) | 3 | 0.075 | 3.49 | inactive
MRPL9 (GeneID 65005) | 1 | 1.52 | 13.7 | inactive
MRPL9 (GeneID 65005) | 2 | 1.31 | 12.2 | inactive
MRPL9 (GeneID 65005) | 3 | -1.13 | -4.97 | inactive
PEX14 (GeneID 5195) | 1 | -1.25 | -5.8 | inactive
PEX14 (GeneID 5195) | 2 | -1.24 | -5.78 | inactive
PEX14 (GeneID 5195) | 3 | 1.45 | 13.2 | inactive
KCMF1 (GeneID 56888) | 1 | 2.18 | 18.3 | inactive
KCMF1 (GeneID 56888) | 2 | 1.76 | 15.4 | inactive
KCMF1 (GeneID 56888) | 3 | 0.534 | 6.72 | inactive
CRYZL1 (GeneID 9946) | 1 | -0.359 | 0.441 | inactive
CRYZL1 (GeneID 9946) | 2 | 5.16 | 39.3 | active
CRYZL1 (GeneID 9946) | 3 | -1 | -4.09 | inactive
RPL29 (GeneID 6159) | 1 | 1.14 | 11 | inactive
RPL29 (GeneID 6159) | 2 | -0.479 | -0.401 | inactive
RPL29 (GeneID 6159) | 3 | 4.23 | 32.8 | inactive
ANAPC2 (GeneID 29882) | 1 | 8.11 | 60 | active
ANAPC2 (GeneID 29882) | 2 | 1.93 | 16.6 | inactive
ANAPC2 (GeneID 29882) | 3 | 3.82 | 29.9 | inactive
FBXL3 (GeneID 26224) | 1 | 1.01 | 10.1 | inactive
FBXL3 (GeneID 26224) | 2 | -0.32 | 0.718 | inactive
FBXL3 (GeneID 26224) | 3 | -0.833 | -2.89 | inactive
ZBTB24 (GeneID 9841) | 1 | 0.96 | 9.72 | inactive
ZBTB24 (GeneID 9841) | 2 | -1.26 | -5.86 | inactive
ZBTB24 (GeneID 9841) | 3 | 0.694 | 7.85 | inactive
PTGFRN (GeneID 5738) | 1 | -0.851 | -3.02 | inactive
PTGFRN (GeneID 5738) | 2 | 0.175 | 4.2 | inactive
PTGFRN (GeneID 5738) | 3 | 2.46 | 20.3 | inactive
CRAMP1 (GeneID 57585) | 1 | -0.66 | -1.68 | inactive
CRAMP1 (GeneID 57585) | 2 | -0.522 | -0.705 | inactive
CRAMP1 (GeneID 57585) | 3 | -0.939 | -3.64 | inactive
PRKCH (GeneID 5583) | 1 | 0.759 | 8.3 | inactive
PRKCH (GeneID 5583) | 2 | 1.02 | 10.1 | inactive
PRKCH (GeneID 5583) | 3 | -0.314 | 0.76 | inactive

Not a retest: an excerpt of the list.
gene | reagent no. | G2 robust z-score | G2 cells, % of GMNN control | Outcome
KCMF1 (GeneID 56888) | 3 | 0.534 | 6.72 | inactive
CRYZL1 (GeneID 9946) | 1 | -0.359 | 0.441 | inactive
CRYZL1 (GeneID 9946) | 2 | 5.16 | 39.3 | active
CRYZL1 (GeneID 9946) | 3 | -1 | -4.09 | inactive
RPL29 (GeneID 6159) | 1 | 1.14 | 11 | inactive
RPL29 (GeneID 6159) | 2 | -0.479 | -0.401 | inactive
RPL29 (GeneID 6159) | 3 | 4.23 | 32.8 | inactive
ANAPC2 (GeneID 29882) | 1 | 8.11 | 60 | active
ANAPC2 (GeneID 29882) | 2 | 1.93 | 16.6 | inactive
ANAPC2 (GeneID 29882) | 3 | 3.82 | 29.9 | inactive

The results go on:
gene | reagent no. | G2 robust z-score | G2 cells, % of GMNN control | Outcome
GCC1 (GeneID 79571) | 1 | -0.349 | 0.512 | inactive
GCC1 (GeneID 79571) | 2 | -0.707 | -2.01 | inactive
GCC1 (GeneID 79571) | 3 | 1.16 | 11.1 | inactive
ZNF24 (GeneID 7572) | 1 | -0.646 | -1.58 | inactive
ZNF24 (GeneID 7572) | 2 | 0.293 | 5.03 | inactive
ZNF24 (GeneID 7572) | 3 | -0.0449 | 2.65 | inactive
IL2RA (GeneID 3559) | 1 | -0.875 | -3.19 | inactive
IL2RA (GeneID 3559) | 2 | 0.51 | 6.56 | inactive
IL2RA (GeneID 3559) | 3 | 0.189 | 4.29 | inactive
CFAP69 (GeneID 79846) | 1 | -0.691 | -1.89 | inactive
CFAP69 (GeneID 79846) | 2 | 0.181 | 4.24 | inactive
CFAP69 (GeneID 79846) | 3 | -0.0204 | 2.82 | inactive
KRT17 (GeneID 3872) | 1 | -0.702 | -1.97 | inactive
KRT17 (GeneID 3872) | 2 | 0.468 | 6.26 | inactive
KRT17 (GeneID 3872) | 3 | -0.833 | -2.89 | inactive
SARDH (GeneID 1757) | 1 | 1.52 | 13.7 | inactive
SARDH (GeneID 1757) | 2 | 2.08 | 17.6 | inactive
SARDH (GeneID 1757) | 3 | 0.0507 | 3.32 | inactive
CNTF (GeneID 1270) | 1 | 2.85 | 23 | inactive
CNTF (GeneID 1270) | 2 | -1.21 | -5.58 | inactive
CNTF (GeneID 1270) | 3 | 1.3 | 12.1 | inactive
SVOP (GeneID 55530) | 1 | 0.404 | 5.81 | inactive
SVOP (GeneID 55530) | 2 | 2.65 | 21.6 | inactive
SVOP (GeneID 55530) | 3 | 6.04 | 45.5 | active
WDR90 (GeneID 197335) | 1 | -0.653 | -1.63 | inactive
WDR90 (GeneID 197335) | 2 | 0.249 | 4.72 | inactive
WDR90 (GeneID 197335) | 3 | -0.733 | -2.19 | inactive
SLC6A11 (GeneID 6538) | 1 | -0.577 | -1.09 | inactive
SLC6A11 (GeneID 6538) | 2 | 0.175 | 4.2 | inactive
SLC6A11 (GeneID 6538) | 3 | -0.622 | -1.41 | inactive
ERVFRD-1 (GeneID 405754) | 1 | -0.597 | -1.23 | inactive
ERVFRD-1 (GeneID 405754) | 2 | 0.524 | 6.66 | inactive
ERVFRD-1 (GeneID 405754) | 3 | 0.117 | 3.79 | inactive
ZNF14 (GeneID 7561) | 1 | 0.145 | 3.99 | inactive
ZNF14 (GeneID 7561) | 2 | -0.224 | 1.39 | inactive
ZNF14 (GeneID 7561) | 3 | -0.136 | 2.01 | inactive
SLC35A2 (GeneID 7355) | 1 | 1.99 | 17 | inactive
SLC35A2 (GeneID 7355) | 2 | 0.728 | 8.09 | inactive
SLC35A2 (GeneID 7355) | 3 | -0.472 | -0.352 | inactive
OR13F1 (GeneID 138805) | 1 | 0.528 | 6.68 | inactive
OR13F1 (GeneID 138805) | 2 | -0.793 | -2.61 | inactive
OR13F1 (GeneID 138805) | 3 | -0.412 | 0.0678 | inactive
EEF1A1P33 (GeneID 390352) | 1 | -0.462 | -0.284 | inactive
EEF1A1P33 (GeneID 390352) | 2 | 0.652 | 7.55 | inactive
EEF1A1P33 (GeneID 390352) | 3 | -0.782 | -2.53 | inactive
ST7L (GeneID 54879) | 1 | -0.539 | -0.822 | inactive
ST7L (GeneID 54879) | 2 | 4.28 | 33.1 | inactive
ST7L (GeneID 54879) | 3 | -0.353 | 0.485 | inactive
LRRN4CL (GeneID 221091) | 1 | -0.146 | 1.94 | inactive
LRRN4CL (GeneID 221091) | 2 | 1.41 | 12.9 | inactive
LRRN4CL (GeneID 221091) | 3 | -0.918 | -3.49 | inactive
